Laboratory results taken from PubChem BioAssay AID248 (DTP/NCI, 2004).
The list is a part of this screen's results and no random one: it gathers tests that were run many times, whatever their T/C, doses with no T/C, and many T/C values between a quarter and a half above the control. Further doses and runs are listed elsewhere. T/C gives the treated animals as a percentage of the vehicle group. Some doses have a count of surviving animals in place of a T/C: the source holds a T/C of zero for them, seemingly a mark for toxic or unscored doses. Some survivor counts are full or nearly so, which does not show that the dose was tolerated: survival well below the control is almost never listed, so the zero probably covers shortened survival too. Counts of survivors are from the toxicity check (mostly the fifth day) where no day follows; animals may have died later. Schedule codes are those of the source, taken here to give the interval after Q, in days (D) or hours (H), and the number of doses after X. Some entries were tested several times; the results are listed from low to high. Some molecules as drawn cover several salts, stereoisomers or complexes of the source; a dose is that of the sample tested. Where survival is the endpoint, this PubChem deposit counts one and a half times the control or more as active, and values a quarter to a half above the control carry no call in these data; other NCI protocols may use other cut-offs. Some T/C values are followed by the survivors on the day toxicity was checked, most often the fifth; without a count, all were alive then.

System: L1210 leukemia ip in BDF1 mice, survival T/C
Experiment: NCI In Vivo Anticancer Drug Screen. Data for tumor model L1210 Leukemia (intraperitoneal) in B6D2F1 (BDF1) mice
Conditions: T/C endpoint: mean survival time, higher T/C = longer survival
[1] = dose: 100.0 mg/kg/injection, schedule: Q01DX009 (ip), vehicle: saline with Tween-80
[2] = dose: 400.0 mg/kg/injection, schedule: Q01DX009 (ip), vehicle: saline with Tween-80
[3] = dose: 400.0 mg/kg/injection, schedule: Q01DX009 (ip), vehicle: Klucel (hydroxypropylcellulose) (HPC)
[4] = dose: 200.0 mg/kg/injection, schedule: Q01DX009 (ip), vehicle: saline with Tween-80
[5] = dose: 200.0 mg/kg/injection, schedule: Q04DX003 (ip), vehicle: saline with Tween-80
[6] = dose: 400.0 mg/kg/injection, schedule: Q04DX003 (ip), vehicle: saline with Tween-80
[7] = dose: 400.0 mg/kg/injection, schedule: Q04DX003 (ip), vehicle: Klucel (hydroxypropylcellulose) (HPC)
[8] = dose: 400.0 mg/kg/injection, schedule: Q01DX009 (ip), vehicle: saline
[9] = dose: 400.0 mg/kg/injection, schedule: Q04DX003 (ip), vehicle: saline
[10] = dose: 300.0 mg/kg/injection, schedule: Q01DX001 (ip), vehicle: saline
[11] = dose: 400.0 mg/kg/injection, schedule: Q01DX001 (ip), vehicle: saline

SMILES: CN(C)/N=N\c1nc[nH]c1C(=O)N1CCCC1
- T/C (dose: 88.0 mg/kg/injection, schedule: Q01DX009 (ip), vehicle: saline with Tween-80): 126 % of control
- T/C [1]: 148 % of control
- T/C (dose: 133.0 mg/kg/injection, schedule: Q01DX009 (ip), vehicle: saline with Tween-80): 146 % of control
- T/C (dose: 300.0 mg/kg/injection, schedule: Q01DX009 (ip), vehicle: saline with Tween-80): 127 % of control
- T/C [2]: 133 % of control

SMILES: c1ccc2c3c([nH]c2c1)CCCC3
- survivor count [3]: 2 of 6

SMILES: COc1cccc2c(Cl)c(CCl)c(C)nc12
- survivor count [1]: 3 of 6
- survivor count [4]: 0 of 6
- survivor count [5]: 3 of 6
- survivor count [6]: 1 of 6

SMILES: O=[N+]([O-])c1cccc(SNc2cccc(Cl)c2)c1
- survivor count [4]: 6 of 6
- survivor count [2]: 0 of 5

SMILES: CC(C)(O)CNC(=O)c1cccc([N+](=O)[O-])c1
- survivor count [7]: 6 of 6

SMILES: CC12CC3CC(C1)CC(C(=O)O)(C3)C2
- survivor count [8]: 2 of 6

SMILES: CN(C)N=Nc1ccccc1C(N)=O
- T/C (dose: 62.5 mg/kg/injection, schedule: Q01DX009 (ip), vehicle: saline with Tween-80): 135 % of control
- T/C (dose: 100.0 mg/kg/injection, schedule: Q01DX009 (ip), vehicle: other): 137 % of control
- T/C (dose: 225.0 mg/kg/injection, schedule: Q01DX009 (ip), vehicle: other): 139 % of control
- T/C (dose: 225.0 mg/kg/injection, schedule: Q01DX009 (ip), vehicle: saline with Tween-80): 128 % of control
- T/C (dose: 250.0 mg/kg/injection, schedule: Q01DX001 (ip), vehicle: saline with Tween-80): 144 % of control [8 of 10 alive]
- survivor count (dose: 250.0 mg/kg/injection, schedule: Q01DX009 (ip), vehicle: saline with Tween-80): 7 of 10
- T/C (dose: 300.0 mg/kg/injection, schedule: Q01DX001 (ip), vehicle: saline with Tween-80): 125 % of control
- survivor count (dose: 500.0 mg/kg/injection, schedule: Q01DX001 (ip), vehicle: saline with Tween-80): 0 of 10
- survivor count (dose: 600.0 mg/kg/injection, schedule: Q01DX001 (ip), vehicle: saline with Tween-80): 1 of 10

SMILES: Cc1ccc(S(=O)(=O)Oc2ccc([N+](=O)[O-])cc2[N+](=O)[O-])cc1
- survivor count (dose: 200.0 mg/kg/injection, schedule: Q01DX009 (ip), vehicle: other): 4 of 6
- survivor count [7]: 4 of 6

SMILES: CCOC(=O)c1ccccc1N=Nc1cc(OC)c(N)cc1OC
- survivor count (dose: 40.0 mg/kg/injection, schedule: Q01DX001 (ip), vehicle: other): 1 of 4
- survivor count (dose: 80.0 mg/kg/injection, schedule: Q01DX001 (ip), vehicle: other): 0 of 4
- survivor count (dose: 100.0 mg/kg/injection, schedule: Q01DX001 (ip), vehicle: other): 0 of 4
- survivor count (dose: 200.0 mg/kg/injection, schedule: Q01DX001 (ip), vehicle: other): 0 of 4
- survivor count (dose: 400.0 mg/kg/injection, schedule: Q01DX001 (ip), vehicle: other): 0 of 4

SMILES: CCOP(=O)(OCC)OCCCN(CC)CC
- survivor count [8]: 3 of 6
- survivor count [9]: 4 of 6

SMILES: CCCCC(I)C(C)(C)[n+]1ccccc1 (stereo unspecified)
- survivor count (dose: 100.0 mg/kg/injection, schedule: Q04DX003 (ip), vehicle: saline with Tween-80): 0 of 6
- survivor count [5]: 0 of 6
- survivor count [6]: 0 of 6

SMILES: CCOC(C)C1C2CCCCC21 (stereo unspecified)
- survivor count [2]: 0 of 6

SMILES: CCCCCCCCCCCc1n(Cc2ccccc2)cc[n+]1C
- survivor count (dose: 2.0 mg/kg/injection, schedule: Q01DX009 (ip), vehicle: acetone): 3 of 6
- survivor count (dose: 4.0 mg/kg/injection, schedule: Q01DX001 (ip), vehicle: saline): 1 of 4
- survivor count (dose: 4.0 mg/kg/injection, schedule: Q04DX003 (ip), vehicle: saline): 1 of 6
- survivor count (dose: 8.0 mg/kg/injection, schedule: Q04DX003 (ip), vehicle: saline): 3 of 6

SMILES: Nc1c(C(=O)O)ccc2c1C(=O)c1ccccc1C2=O
- survivor count (dose: 400.0 mg/kg/injection, schedule: Q04DX003 (ip), vehicle: gum acacia): 0 of 6

SMILES: CNC(=O)Oc1cccc(N)c1
- survivor count [10]: 0 of 6

SMILES: CCCCCCCCCCCCn1c(C)nc2ccccc21
- survivor count (dose: 12.0 mg/kg/injection, schedule: Q03HX024 (ip), vehicle: saline): 9 of 10
- survivor count (dose: 18.0 mg/kg/injection, schedule: Q03HX024 (ip), vehicle: saline): 7 of 10
- survivor count (dose: 27.0 mg/kg/injection, schedule: Q03HX024 (ip), vehicle: saline): 0 of 10
- survivor count (dose: 40.0 mg/kg/injection, schedule: Q01DX009 (ip), vehicle: saline): 7 of 10
- survivor count (dose: 40.0 mg/kg/injection, schedule: Q03HX024 (ip), vehicle: saline): 0 of 10
- survivor count (dose: 54.0 mg/kg/injection, schedule: Q01DX001 (ip), vehicle: saline): 9 of 10
- survivor count (dose: 54.0 mg/kg/injection, schedule: Q04DX003 (ip), vehicle: saline): 7 of 10
- survivor count (dose: 61.0 mg/kg/injection, schedule: Q01DX009 (ip), vehicle: saline): 0 of 10
- survivor count (dose: 61.0 mg/kg/injection, schedule: Q03HX024 (ip), vehicle: saline): 0 of 10
- survivor count (dose: 80.0 mg/kg/injection, schedule: Q01DX001 (ip), vehicle: saline): 0 of 4 and 7 of 10
- survivor count (dose: 80.0 mg/kg/injection, schedule: Q04DX003 (ip), vehicle: saline): 7 of 10
- survivor count (dose: 120.0 mg/kg/injection, schedule: Q01DX001 (ip), vehicle: saline): 4 of 10 and 6 of 10
- survivor count (dose: 120.0 mg/kg/injection, schedule: Q04DX003 (ip), vehicle: saline): 2 of 10 and 7 of 10
- survivor count (dose: 180.0 mg/kg/injection, schedule: Q01DX001 (ip), vehicle: saline): 0 of 10
- survivor count (dose: 180.0 mg/kg/injection, schedule: Q04DX003 (ip), vehicle: saline): 1 of 10
- survivor count (dose: 270.0 mg/kg/injection, schedule: Q01DX001 (ip), vehicle: saline): 0 of 10
- survivor count (dose: 270.0 mg/kg/injection, schedule: Q04DX003 (ip), vehicle: saline): 1 of 10
- survivor count [11]: 0 of 10
- survivor count [9]: 0 of 10
- survivor count (dose: 610.0 mg/kg/injection, schedule: Q01DX001 (ip), vehicle: saline): 0 of 10
- survivor count (dose: 610.0 mg/kg/injection, schedule: Q04DX003 (ip), vehicle: saline): 0 of 10

SMILES: Cc1cc(C)[n+]2ccccc2n1
- survivor count [10]: 0 of 6

SMILES: FC(F)(F)C1=N/C(=C2\N=C(C(F)(F)F)N=C2Cl)C(Cl)=N1
- survivor count [1]: 1 of 6
- survivor count [4]: 0 of 6
- survivor count [2]: 0 of 6

SMILES: NCc1cc[n+]([O-])cc1
- survivor count (dose: 100.0 mg/kg/injection, schedule: Q04DX002 (ip), vehicle: saline): 3 of 3
- survivor count (dose: 200.0 mg/kg/injection, schedule: Q04DX002 (ip), vehicle: saline): 3 of 3

SMILES: NCc1cccc2ccccc12
- survivor count (dose: 250.0 mg/kg/injection, schedule: Q01DX001 (ip), vehicle: saline): 3 of 6
- survivor count [11]: 0 of 6

SMILES: CCNC1C2CCC(C2)C1c1ccccc1 (stereo unspecified)
- survivor count (dose: 50.0 mg/kg/injection, schedule: Q01DX009 (ip), vehicle: saline): 2 of 6
- survivor count (dose: 100.0 mg/kg/injection, schedule: Q04DX003 (ip), vehicle: saline): 1 of 4
- survivor count (dose: 200.0 mg/kg/injection, schedule: Q04DX003 (ip), vehicle: saline): 0 of 4
- survivor count [9]: 0 of 4

SMILES: O=C(COc1cccc(Cl)c1)Nc1cc[n+](Cc2ccc(S(=O)(=O)F)cc2)cc1
- survivor count [5]: 2 of 6
- survivor count [6]: 0 of 6

SMILES: CCCC(C)Cc1ccc(C(=O)O)cc1 (stereo unspecified)
- survivor count [3]: 1 of 6

SMILES: Cc1ccc(SC2=C(Sc3ccc(C)cc3)C(=O)c3ccccc3C2=O)cc1
- survivor count [1]: 6 of 6
- survivor count [4]: 6 of 6
- survivor count [2]: 6 of 6
